Binding data for one substance are collected here from publication PMC3790753.

Chains of the proteins cited; added tags and fusions are not shown.
UniProt P31947: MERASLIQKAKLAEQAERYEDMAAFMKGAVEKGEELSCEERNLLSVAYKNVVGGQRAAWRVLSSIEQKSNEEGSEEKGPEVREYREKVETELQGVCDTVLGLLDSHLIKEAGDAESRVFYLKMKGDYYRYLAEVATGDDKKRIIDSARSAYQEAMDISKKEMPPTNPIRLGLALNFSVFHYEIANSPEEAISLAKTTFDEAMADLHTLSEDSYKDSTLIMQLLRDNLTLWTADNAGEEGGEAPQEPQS

Results are given in words; binding and its absence hold for the method and conditions named. Binding seen in cells or lysates may run through a third protein. Here binding means that the protein was enriched with, or labelled near, the bait; the list need not be complete. Tags and fused reporters may be left off the sequences shown.

In the test the target is T1, Pkp-3-myc (full-length myc-tagged plakophilin-3) (human) (UniProt Q9Y446).
T1 sequence: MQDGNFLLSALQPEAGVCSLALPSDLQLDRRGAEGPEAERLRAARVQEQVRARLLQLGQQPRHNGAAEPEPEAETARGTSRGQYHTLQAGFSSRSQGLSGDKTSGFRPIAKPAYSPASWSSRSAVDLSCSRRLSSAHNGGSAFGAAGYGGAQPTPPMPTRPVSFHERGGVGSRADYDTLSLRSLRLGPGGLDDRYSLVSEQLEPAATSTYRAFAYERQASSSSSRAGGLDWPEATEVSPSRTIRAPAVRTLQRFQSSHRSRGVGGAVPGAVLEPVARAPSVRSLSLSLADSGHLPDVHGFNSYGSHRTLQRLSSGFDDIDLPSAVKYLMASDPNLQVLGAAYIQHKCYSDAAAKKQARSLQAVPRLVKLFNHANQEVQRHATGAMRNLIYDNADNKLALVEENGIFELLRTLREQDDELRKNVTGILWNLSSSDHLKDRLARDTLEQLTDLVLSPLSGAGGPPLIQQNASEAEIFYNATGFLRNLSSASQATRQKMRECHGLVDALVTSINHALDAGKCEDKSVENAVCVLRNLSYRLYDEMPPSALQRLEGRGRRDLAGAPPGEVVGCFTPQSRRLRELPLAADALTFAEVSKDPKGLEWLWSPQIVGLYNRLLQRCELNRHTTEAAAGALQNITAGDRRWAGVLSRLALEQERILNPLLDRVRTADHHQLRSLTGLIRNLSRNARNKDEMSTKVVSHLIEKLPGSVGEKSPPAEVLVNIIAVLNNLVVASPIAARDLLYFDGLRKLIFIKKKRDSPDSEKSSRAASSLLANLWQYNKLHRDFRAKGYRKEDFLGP
The experiment in a line: affinity purification with mass spectrometry; myc-tagged plakophilin-3 immunopurified from A431 cell lysates; immune complexes trypsin digested, peptides identified by mass spectroscopy.

In the case of “stratifin (14-3-3 σ) (endogenous) (from UniProt P31947 1-248)”, the binding entry is reported as “binds”.
